Experimental data reported in article doi:10.1101/2020.07.12.199869.
Results are given in words; binding and its absence hold for the method and conditions named. In cells and extracts the contact can be indirect.

Protein sequences, listed by entry. Tags and fused reporters are not part of them.
UniProt Q9WVE8: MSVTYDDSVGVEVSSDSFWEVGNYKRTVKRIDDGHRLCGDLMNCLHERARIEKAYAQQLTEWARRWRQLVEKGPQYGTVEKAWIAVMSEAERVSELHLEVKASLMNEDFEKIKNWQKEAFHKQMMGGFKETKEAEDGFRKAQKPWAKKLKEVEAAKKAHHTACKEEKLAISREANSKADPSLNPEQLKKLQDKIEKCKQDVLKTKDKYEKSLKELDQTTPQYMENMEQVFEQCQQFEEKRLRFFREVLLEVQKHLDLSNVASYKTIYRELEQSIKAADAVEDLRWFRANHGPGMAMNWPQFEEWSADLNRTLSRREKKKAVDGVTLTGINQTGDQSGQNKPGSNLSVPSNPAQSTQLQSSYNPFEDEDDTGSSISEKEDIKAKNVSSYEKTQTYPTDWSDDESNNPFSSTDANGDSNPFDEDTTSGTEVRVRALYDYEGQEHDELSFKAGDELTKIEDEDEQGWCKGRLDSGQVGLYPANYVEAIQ

Target: T1, EEA-1 (mouse (endogenous in bEnd3)) (UniProt Q8BL66)
T1 sequence: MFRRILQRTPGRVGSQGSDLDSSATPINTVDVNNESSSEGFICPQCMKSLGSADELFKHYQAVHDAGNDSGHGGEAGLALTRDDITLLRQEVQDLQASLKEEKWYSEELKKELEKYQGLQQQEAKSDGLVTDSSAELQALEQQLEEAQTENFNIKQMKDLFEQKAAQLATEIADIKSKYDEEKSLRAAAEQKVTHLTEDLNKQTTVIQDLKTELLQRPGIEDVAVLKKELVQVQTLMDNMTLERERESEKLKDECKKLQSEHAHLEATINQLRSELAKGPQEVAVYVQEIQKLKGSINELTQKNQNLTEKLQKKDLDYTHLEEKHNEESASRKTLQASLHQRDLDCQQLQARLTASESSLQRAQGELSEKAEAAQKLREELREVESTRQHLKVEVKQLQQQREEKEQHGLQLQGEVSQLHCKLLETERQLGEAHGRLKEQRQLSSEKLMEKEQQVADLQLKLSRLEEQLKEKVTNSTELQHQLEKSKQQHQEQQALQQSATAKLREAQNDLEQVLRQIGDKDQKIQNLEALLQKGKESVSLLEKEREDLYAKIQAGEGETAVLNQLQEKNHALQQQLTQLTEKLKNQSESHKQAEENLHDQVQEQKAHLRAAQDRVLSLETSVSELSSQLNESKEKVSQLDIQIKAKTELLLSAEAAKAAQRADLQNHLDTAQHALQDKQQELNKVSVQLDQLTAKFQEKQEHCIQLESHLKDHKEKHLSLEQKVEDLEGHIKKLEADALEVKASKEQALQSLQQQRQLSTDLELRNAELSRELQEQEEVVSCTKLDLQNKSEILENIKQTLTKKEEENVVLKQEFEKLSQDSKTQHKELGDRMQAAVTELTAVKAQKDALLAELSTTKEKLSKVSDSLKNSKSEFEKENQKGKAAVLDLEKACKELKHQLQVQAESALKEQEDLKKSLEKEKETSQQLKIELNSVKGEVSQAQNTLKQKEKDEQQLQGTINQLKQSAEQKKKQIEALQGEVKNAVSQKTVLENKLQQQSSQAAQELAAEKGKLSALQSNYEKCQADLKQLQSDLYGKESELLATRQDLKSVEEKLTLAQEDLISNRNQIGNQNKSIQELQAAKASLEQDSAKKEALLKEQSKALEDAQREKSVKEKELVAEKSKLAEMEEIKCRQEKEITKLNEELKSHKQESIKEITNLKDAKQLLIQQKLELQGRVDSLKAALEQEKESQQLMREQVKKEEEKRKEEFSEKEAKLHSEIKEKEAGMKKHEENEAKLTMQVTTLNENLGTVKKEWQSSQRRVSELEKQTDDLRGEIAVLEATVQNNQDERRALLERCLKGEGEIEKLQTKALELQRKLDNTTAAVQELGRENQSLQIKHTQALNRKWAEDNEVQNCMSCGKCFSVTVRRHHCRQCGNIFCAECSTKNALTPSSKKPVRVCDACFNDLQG
Assay: proximity ligation

- binding: no binding (tested: < 20 dots per cell)
Substance: syndapin-2 (from UniProt Q9WVE8 1-486)
